Results published in the supplement of paper PMC12067093, “Discovery and optimisation of a covalent ligand for TRIM25 and its application to targeted protein ubiquitination” (Chemical Science, 2025).
This is one part of the list.

Compound: CC1Cc2ccccc2N1C(=O)C1CCCN(C1)C(=O)CCl (mixture of isomers) [TRIM25 ligand 11 (diastereomer mixture)]
Test: probe-labelled cysteine peptide fold change vs DMSO (competition) (log2 fold change); higher = less target engagement (more negative = stronger competition)
Conditions: THP-1, incubation time: 4 h
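Further: competitive chemoproteomic profiling in live THP-1 cells with an iodoacetamide desthiobiotin (IA-DTB) probe, comparing probe-labelled peptide intensities in compound-treated cells against DMSO-treated controls.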

Target	probe-labelled cysteine peptide fold change (10 µM)	probe-labelled cysteine peptide fold change (50 µM)
ITPR2_Q14571_379_ADCLVPR (UniProt Q14571)	-0.149	-0.144
KDM5C_P41229_707_EAFELLPDDERQCIK (UniProt P41229)	0.0217	0.014
KDM4A_O75164_560_VTVGEPCTR (UniProt O75164)	0.0439	-0.158
KCMF1_Q9P0J7_9+12_HEGVSCDACLK (UniProt Q9P0J7)	0.233	0.13
KHSRP_Q92945_379_CEHAAR (UniProt Q92945)	-0.0711	0.0724
ITPK1_Q13572_126_KIEAYMEDDRICSPPFMELTSLCGDDTMR (UniProt Q13572)	-0.0554	-0.18
ITPR1_Q14643_1471_ACNNTSDR (UniProt Q14643)	0.436	0.496
KCNAB2_Q13303_248_IGVGAMTWSPLACGIVSGK (UniProt Q13303)	0.0997	-0.115
JMJD6_Q6NYC1_207_RWCLFPTSTPR (UniProt Q6NYC1)	-0.0707	0.15
KHSRP_Q92945_176_IQQDSGCK (UniProt Q92945)	-0.0168	0.161
KARS_Q15046_427_KILDDICVAK (UniProt Q15046)	-0.413	-0.48
KDM3B_Q7LBC6_295_SASDSGCDPASKK (UniProt Q7LBC6)	-0.135	-0.229
IVD_P26440_254+261_GSNTCELIFEDCK (UniProt P26440)	0.0605	0.0743
KIDINS220_Q9ULH0_1250_VLAQCNIDELKK (UniProt Q9ULH0)	-0.13	0.135
KCTD3_Q9Y597_704_GATGECNISER (UniProt Q9Y597)	-0.0633	-0.15
KIF15_Q9NS87_1062_DMLCEDLAHATEQLNMLTEASK (UniProt Q9NS87)	0.371	-0.0327
ITPA_Q9BY32_57_CQEAVR (UniProt Q9BY32)	-0.00384	0.103
KDM2B_Q8NHM5_665_QCIAPVLPHTAVCLVCGEAGKEDTVEEEEGK (UniProt Q8NHM5)	-0.162	-0.101
KDM4A_O75164_430_EDLSSEQYEMTECPAALAPVRPTHSSVR (UniProt O75164)	-0.0418	
IVNS1ABP_Q9Y6Y0_52_AVLACCSPYLFEIFNSDSDPHGISHVK (UniProt Q9Y6Y0)	0.0337	0.201
ITPR1_Q14643_2536_EHTCETLLMCIVTVLSHGLR (UniProt Q14643)	0.0876	0.0122

Target	probe-labelled cysteine peptide fold change (10 µM)	probe-labelled cysteine peptide fold change (50 µM)
KANSL1_Q7Z3B3_664_LSQLDSCVHPVLAFPDDVPTSLHFQSMLK (UniProt Q7Z3B3)	0.0737	0.0775
KDELC2_Q7Z4H8_141_GPVYHEYCECPEDPQAWQK (UniProt Q7Z4H8)	0.00254	-0.0237
ITPR2_Q14571_1385_DRGDESGPLAYHITLVELLAACTEGK (UniProt Q14571)	0.292	0.164
KATNB1_Q9BVA0_499_GHDTMCVVLTSR (UniProt Q9BVA0)	0.192	0.15
KIAA0100_Q14667_1595_GAETEGCVIVSAAK (UniProt Q14667)	-0.158	-0.147
KBTBD11_O94819_421_LLALDGHLYAVGGECLLSVER (UniProt O94819)	-0.0593	0.0685
KAT5_Q92993_11_AEVGEIIEGCR (UniProt Q92993)	0.229	0.219
ITPR1_Q14643_2542_EHTCETLLMCIVTVLSHGLR (UniProt Q14643)	0.0738	0.107
KARS_Q15046_463_LVGEFLEVTCINPTFICDHPQIMSPLAK (UniProt Q15046)	0.0115	-0.0242
KIDINS220_Q9ULH0_867_FLVTSATNGDVPCSDTTGIQEDADRR (UniProt Q9ULH0)	-0.0178	-0.0906
KIF13B_Q9NQT8_870_LVCMVK (UniProt Q9NQT8)	0.0557	0.216
IVD_P26440_254_GSNTCELIFEDCK (UniProt P26440)	0.241	0.23
KDM1A_O60341_618_CDAVLCTLPLGVLK (UniProt O60341)	0.124	0.0108
KDM2A_Q9Y2K7_429_TLAGDSSSDCSR (UniProt Q9Y2K7)	-0.151	-0.422
JMY_Q8N9B5_547_CEELLLTAQLESIKR (UniProt Q8N9B5)	0.0243	0.0724
KIAA0391_O15091_469+493_QASCFFADDISEDDPFLLYATLHSGNHCR (UniProt O15091)	0.122	0.133
KIF15_Q9NS87_1062_ILSEDIERDMLCEDLAHATEQLNMLTEASKK (UniProt Q9NS87)	-0.437	-0.338
ITM2C_Q9NQX7_96_CGVLYEDSLSSQVR (UniProt Q9NQX7)	0.0701	-0.156
KDM3B_Q7LBC6_1470_VRDFWDGFEIICK (UniProt Q7LBC6)	-0.0683	-0.132
KIF11_P52732_25_CRPFNLAER (UniProt P52732)	0.0374	0.0242
KDM2B_Q8NHM5_770_RSECEEAPR (UniProt Q8NHM5)	0.117	0.0231

Target	probe-labelled cysteine peptide fold change (10 µM)	probe-labelled cysteine peptide fold change (50 µM)
KIAA0391_O15091_367_TIESIQLSPEEYECLK (UniProt O15091)	0.105	-0.118
KDM3B_Q7LBC6_1392_LLCLHDPSNK (UniProt Q7LBC6)	-0.0179	0.17
KANK2_Q63ZY3_562_QECQLSR (UniProt Q63ZY3)	-0.0566	-0.0158
JMJD1C_Q15652_1871_CGFVVCLDCYK (UniProt Q15652)	0.135	0.228
KANK1_Q14678_589_SVEMCDK (UniProt Q14678)	-0.078	0.143
IVNS1ABP_Q9Y6Y0_32_SGQFCDVR (UniProt Q9Y6Y0)	0.0251	0.062
KIF13B_Q9NQT8_1234_AEASWDSAVHGCPQLSR (UniProt Q9NQT8)	-0.0064	0.0464
KAT7_O95251_418_IYCQNLCLLAK (UniProt O95251)	0.19	0.226
KIF13B_Q9NQT8_773_DLYQEWKECEEDNPVIR (UniProt Q9NQT8)	-0.214	-0.101
KDM3A_Q9Y4C1_947_RPQGLTIKPSILGFDTPHYWLCDNR (UniProt Q9Y4C1)	-0.0913	-0.0656
KARS_Q15046_496_EICNAYTELNDPMR (UniProt Q15046)	-0.184	-0.0552
KATNB1_Q9BVA0_43_LLATGGDDCR (UniProt Q9BVA0)	0.0141	0.0582
KCTD12_Q96CX2_50_CTVVSVPDSLLWR (UniProt Q96CX2)	0.163	-0.187
KANSL3_Q9P2N6_161_LANEGACNEPVLR (UniProt Q9P2N6)	-0.1	-0.297
IVD_P26440_136_ASGAVGLSYGAHSNLCINQLVR (UniProt P26440)	0.0597	-0.151
IVNS1ABP_Q9Y6Y0_454_CNAGVCALNGK (UniProt Q9Y6Y0)	-0.13	-0.103
KIF13B_Q9NQT8_26_CVVDVDANK (UniProt Q9NQT8)	-0.0423	0.0732
KDM3A_Q9Y4C1_497_VDNESCCSR (UniProt Q9Y4C1)	0.428	0.258
KAT8_Q9H7Z6_63_GEPEVTVEIGETYLCR (UniProt Q9H7Z6)	0.0574	0.211
KDELC1_Q6UW63_257_SNSNIHPIFSWCGSTDSK (UniProt Q6UW63)	0.0289	0.0808
ITPR2_Q14571_1415_VVTHDDCIPEVK (UniProt Q14571)	0.0273	-0.0219

Target	probe-labelled cysteine peptide fold change (10 µM)	probe-labelled cysteine peptide fold change (50 µM)
KDELC1_Q6UW63_153_EMNCPETIAQIQR (UniProt Q6UW63)	-0.0583	0.0741
JMJD1C_Q15652_1935_SHCHCTNK (UniProt Q15652)	0.112	-0.0929
IVNS1ABP_Q9Y6Y0_387_TVECYNPHTDHWSFLAPMR (UniProt Q9Y6Y0)	0.0414	-0.182
KATNB1_Q9BVA0_579_YESYVQTGCTSLK (UniProt Q9BVA0)	-0.0536	0.151
ITGB7_P26010_428_GQCNHVR (UniProt P26010)	0.13	0.199
KAT2B_Q92831_100_LGVYSACK (UniProt Q92831)	0.0443	0.107
KIDINS220_Q9ULH0_779_LVVIIDGLDACEQDK (UniProt Q9ULH0)	-0.174	0.0538
KIDINS220_Q9ULH0_747_CEVELMAR (UniProt Q9ULH0)	-0.0216	0.105
KDELC2_Q7Z4H8_495+497_DGMELVPQPEDSTAICQCHR (UniProt Q7Z4H8)	0.0709	-0.171
KDM3B_Q7LBC6_904_QSGEPFLQDGSCINVAPHLHK (UniProt Q7LBC6)	-0.00194	-0.0166
KHNYN_O15037_245_ESLDTGSMGPGDCR (UniProt O15037)	-0.177	-0.355
KARS_Q15046_209_GELSIIPYEITLLSPCLHMLPHLHFGLK (UniProt Q15046)	-0.0461	-0.178
ITPKB_P27987_873_CHEVIGSSLLFIHDKK (UniProt P27987)	-0.0355	0.0246
KHSRP_Q92945_296_VQQACEMVMDILR (UniProt Q92945)	0.125	-0.164
ITPA_Q9BY32_33_KLEEVVQILGDKFPCTLVAQK (UniProt Q9BY32)	-0.34	-0.182
KDM1A_O60341_623_CDAVLCTLPLGVLK (UniProt O60341)	0.0788	0.195
ITPR1_Q14643_1197_LCVQESASVR (UniProt Q14643)	0.125	0.213
KAT7_O95251_474_NSFLNYNVSCILTMPQYMR (UniProt O95251)	0.151	0.188
ITPR3_Q14573_1387_CTSLLPLEDVVSVVTHEDCITEVK (UniProt Q14573)	0.242	0.194
KBTBD11_O94819_483+485_RDEWQECPCSSSR (UniProt O94819)	0.153	-0.0495
IWS1_Q96ST2_749_ALRPGDPGFCAR (UniProt Q96ST2)	0.00734	-0.215

Not a retest: entries from further up.
Target	probe-labelled cysteine peptide fold change (10 µM)	probe-labelled cysteine peptide fold change (50 µM)
KATNB1_Q9BVA0_579_YESYVQTGCTSLK (UniProt Q9BVA0)	-0.0536	0.151
ITGB7_P26010_428_GQCNHVR (UniProt P26010)	0.13	0.199
KAT2B_Q92831_100_LGVYSACK (UniProt Q92831)	0.0443	0.107
KIDINS220_Q9ULH0_779_LVVIIDGLDACEQDK (UniProt Q9ULH0)	-0.174	0.0538
KIDINS220_Q9ULH0_747_CEVELMAR (UniProt Q9ULH0)	-0.0216	0.105
